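Growth of Mycobacterium tuberculosis over 3 days (7H9 medium with glucose and tyloxapol); the read-out is not stated. Tested at 50 µM. Higher reads as more growth inhibition (inferred: compounds with an IC50 in retests scored well above the rest). Size under these conditions: about 69,000 compounds, about 760 of them at 50% or above in at least one test.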

Results are given as percent effect.
The controls that fix the scale are not given in the record; negative values are as filed.
Compounds were drawn at random from those tested, without regard to their results.
Two or more numbers in one place are separate tests of the same structure; such repeats can differ widely.

- CSc1nnc(C2CCN(C(=O)N3CCOCC3)CC2)n1C(C)C | 10.15%
- CCOCc1ncn2c1CN(S(=O)(=O)c1cccs1)CCC2 | -9.729% and -46.45%
- Cn1cc2ncn(CCNc3cccnc3)c(=O)c2n1 | -13.7%
- O=C(O)C(F)(F)F.[H][C@@]12OCCC[C@]1([H])N(S(=O)(=O)CCC)C[C@@H]2N(C)Cc1ccco1 | 2.205%
- COCCC(=O)NC(C)(C(N)=O)c1cccc(Cl)c1 (stereo unspecified) | 5.952%
- Cc1cc(C)cc(CNc2ccc(C(=O)NC(C)CO)cc2)c1 (stereo unspecified) | 12.23%
- O=C(O)c1cc2c(nc1O)CC(c1cccs1)CC2=O (stereo unspecified) | 6.417%
- Cc1ccccc1CSc1nc(=O)n(CCO)c2c1CCC2 | 7.269%
- C[C@]1(O)CCN(Cc2c[nH]cn2)C[C@@H]1Oc1cccc(F)c1 | 2.8%
- Cc1nnsc1C(=O)N(C)Cc1nc(-c2ccccn2)no1 | 4.61% and -8.131%
- COc1cccc(N2CCN(C(=O)C(C)Oc3ccccc3)CC2=O)c1 (stereo unspecified) | -16.36%
- CCO[C@@H]1CCN(C(=O)c2ccc[nH]2)[C@@H]1Cc1cccnc1.O=C(O)C(F)(F)F | -6.139%
- Cc1c[nH]nc1C1CCCCN1C(=O)CC1(O)CCCCC1 (stereo unspecified) | 9.426%
- Cc1noc(C)c1CSC1CCCN(c2cnn(C)c2)C1=O (stereo unspecified) | -7.951%
- COc1ccccc1OCCC(=O)NCc1ncc(C)c(OC)c1C | 8.795%
- COCCn1c(C(=O)NCc2n[nH]c(C)n2)cc2ccccc21 | -28.93%
- Cc1nc(C)c(C(=O)NCCNC(=O)Cc2ccc(F)cc2)s1 | -51.35% and -8.687%
- CCn1cnnc1C1CCN(C(=O)CC(C)n2cccc2)CC1 (stereo unspecified) | -11.36%
- Cc1c(C(=O)N(C)CC(F)(F)F)nnn1-c1ccccc1Cl | 15.52%
- Cc1cccc(N2CCCN=C2NC(=O)c2cccc(Cl)c2)c1 | -10.99%
- [H][C@]12CCN(C(=O)CC(C)(C)C)CC[C@@]1([H])S(=O)(=O)CCN2S(C)(=O)=O | 3.539%
- Cn1ccnc1CN1CCN(Cc2cc(C#N)ccc2F)CC1 | -4.704%
- O=C([C@H]1CCCO1)N1CC[C@H](O)[C@@H]1Cc1cccnc1 | 17.09%
- CCn1cc(C(=O)NCc2csc(Br)c2)cn1 | 9.565%
- O=S1(=O)CCC(n2nc(COc3ccccc3)nc2-c2cnccn2)C1 (stereo unspecified) | -7.973%
- O=C(CNc1cc(-n2cnnn2)ccc1F)NCc1ccccc1 | 3.087%
- Cc1noc(C)c1-c1cc(CCC2CN(C(=O)C(C)C)CCO2)ncn1 (stereo unspecified) | 11.46%
- Cc1cccc(CN2CCC(NS(C)(=O)=O)CC2)n1 | 2.421% and -6.622%
- CS(=O)(=O)NCc1cc(-c2cc(F)cc(F)c2)nc(N2CC[C@H](O)C2)n1 | 7.709%
- CN(C)CCOCC1CN(C(=O)c2ccccn2)Cc2ccnn2C1 (stereo unspecified) | -6.772% and -46.12%
- CCn1nc(C)c(-c2cncn2Cc2ccccc2CN(C)C)c1C.Cl | 1.635%
- COc1cc(CN[C@@H]2COC[C@H]2Cc2cc(C)no2)cc(OC)c1.O=C(O)CC(O)(CC(=O)O)C(=O)O | 17.89%
- CN(Cc1ccc(Cl)s1)C(=O)Cn1nc(-c2ccc(F)cc2)oc1=O | -13.44%
- CC(C)c1nc(CN(C)C(=O)c2ccccc2C2CCNC2)cs1 (stereo unspecified) | 1.345%
- Cc1cc(F)ccc1N1CCC(N2C[C@@H](C)[C@@](C)(O)C2)CC1 | 34.33% and 31.59%
- COCCN1CCCC2(CCN(c3ccsc3)C2=O)C1.O=C(O)C(F)(F)F (stereo unspecified) | -19.91%
- Cc1cc(C)c(CNC(=O)NCC2Cc3ccccc3O2)c(=O)[nH]1 (stereo unspecified) | 2.143%
- O=C(NC[C@H]1OC[C@@H](NCc2ccccn2)[C@@H]1O)c1ccc(F)cc1 | -24.67% and -1.204%
- O=C(c1ccc(Cl)cc1)N1CCc2nc(C(=O)N3CCCC3)sc2CC1 | -25.72% and -6.347%
- NC(=O)CC1CCN(Cc2ccccc2OCC(F)(F)F)CC1 | 45.62%
- Nc1nc2c(s1)C(c1c(F)cccc1Cl)CC(=O)N2 (stereo unspecified) | 3.374%
- Cc1ncsc1C(=O)N(Cc1cccs1)C1CC1 | 8.362%
- CNC(=O)NC(=O)CN(CC(C)O)c1ccccc1 (stereo unspecified) | 1.763%
- Cc1occc(=O)c1OCc1noc(C(=O)NC(C)C)n1 | -11.43%
- Cc1cc(N2CCN(C(=O)c3cc(Cl)c[nH]3)CC2)nc(N)n1 | 16.69%
- [H][C@@]12C[C@@H](Oc3cncnc3)CN1CCN(C(=O)c1ccc(C)nc1)C2 | -5.384% and -6.571%
- CN1CCc2nnc(C3CCCN3S(=O)(=O)c3ccc(F)cc3)n2CC1 (stereo unspecified) | -1.588%
- Clc1ccc(C2NCCc3cc4c(cc32)OCCO4)cc1 (stereo unspecified) | -22.52%
- Cn1cccc1C(O)CNS(=O)(=O)Cc1ccccc1 (stereo unspecified) | -4.068% and 3.648%
- [H][C@]12CCC[C@@]1(COc1ccccn1)CN(C(=O)Cc1ccccn1)C2 | 10.03%
- Cc1cc(CN(C)C(=O)NC2CCN(C3CC3)CC2)no1 | -2.676%
- COC(=O)CS(=O)(=O)CCC(=O)N1CCCC1c1ccsc1 (stereo unspecified) | 27.43% and -4.663%
- CNc1nc(C2CCCN2C(C)=O)nc2c1CN(CCO)CC2.O=CO (stereo unspecified) | -20.11%
- CCCc1noc(CCCC(=O)N2CCCC(n3ccnc3C)C2)n1 (stereo unspecified) | 9.171%
- CC(=O)N(Cc1noc(C)n1)C1CCN(CC2(O)CCCCC2)C1 (stereo unspecified) | 3.113%
- [H][C@@]12CCN(C3CCCC3)C[C@@]1([H])[C@H](C(=O)NC1CC1)CCO2 | 3.668% and -2.518%
- COc1ccc(C(=O)NCc2cccnc2N2CCOCC2)o1 | 8.298%
- O=S(=O)(Cc1ccc(F)cc1F)NCCOc1cccnc1 | 42.14%
- Cc1cn2nc(N3CCN(Cc4nc(C(C)C)no4)CC3)sc2n1 | 30.72%
- [H][C@]12CC[C@]([H])(CN(C(=O)c3cnccn3)C1)N(C(=O)CCc1ccsc1)C2 | -10.99%

For reference, 3 entries once more:

| compound | percent effect |
|---|---|
| `COc1cc(CN[C@@H]2COC[C@H]2Cc2cc(C)no2)cc(OC)c1.O=C(O)CC(O)(CC(=O)O)C(=O)O` | 17.89% |
| `Cc1cc(CN(C)C(=O)NC2CCN(C3CC3)CC2)no1` | -2.676% |
| `Cc1c(C(=O)N(C)CC(F)(F)F)nnn1-c1ccccc1Cl` | 15.52% |

Measurements from “University of Dundee, Small-Polar-MMV Screening Library” (2021), ChEMBL document CHEMBL3988442.